Assay results from the supplement of paper PMC8728848.
The other results are listed elsewhere or left out.

Key:
Experiment in all cases: glycan array binding signal (z-score within array); higher = stronger binding
Conditions in all cases: glycan notation: IUPAC condensed, linker removed
[1] = target: Gal(b1-4)GlcNAc(b1-3)Gal(b1-4)Glc
Method in brief: (§1)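 Arrays were curated from the Consortium for Functional Glycomics database, 3228 in total, and kept only where the protein sequence was available. Binding is expressed as a within-array Z-score. This score was averaged across arrays of the same protein sequence at different concentrations or buffers and across linkers, and negative values can be read as non-binding.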

[2] = target: Gal(b1-4)GlcNAc(b1-3)Gal(b1-4)GlcNAc
Method in brief: as §1

[3] = target: Gal(b1-4)GlcNAc(b1-3)Gal(b1-4)GlcNAc(b1-2)Man(a1-3)[Gal(b1-4)GlcNAc(b1-3)Gal(b1-4)GlcNAc(b1-2)Man(a1-6)]Man(b1-4)GlcNAc(b1-4)GlcNAc
Method in brief: as §1

[4] = target: Gal(b1-4)GlcNAc(b1-3)Gal(b1-4)GlcNAc(b1-2)Man(a1-3)[Gal(b1-4)GlcNAc(b1-3)Gal(b1-4)GlcNAc(b1-2)Man(a1-6)]Man(b1-4)GlcNAc(b1-4)[Fuc(a1-6)]GlcNAc
Method in brief: as §1

[5] = target: Gal(b1-4)GlcNAc(b1-3)Gal(b1-4)GlcNAc(b1-2)[Gal(b1-4)GlcNAc(b1-3)Gal(b1-4)GlcNAc(b1-6)]Man(a1-6)[Gal(b1-4)GlcNAc(b1-3)Gal(b1-4)GlcNAc(b1-2)Man(a1-3)]Man(b1-4)GlcNAc(b1-4)GlcNAc
Method in brief: as §1

[6] = target: Gal(b1-4)GlcNAc(b1-3)Gal(b1-4)GlcNAc(b1-2)[Gal(b1-4)GlcNAc(b1-3)Gal(b1-4)GlcNAc(b1-6)]Man(a1-6)[Gal(b1-4)GlcNAc(b1-3)Gal(b1-4)GlcNAc(b1-2)Man(a1-3)]Man(b1-4)GlcNAc(b1-4)[Fuc(a1-6)]GlcNAc
Method in brief: as §1

[7] = target: Gal(b1-4)GlcNAc(b1-3)Gal(b1-4)GlcNAc(b1-3)Gal(b1-4)GlcNAc
Method in brief: as §1

[8] = target: Gal(b1-4)GlcNAc(b1-3)Gal(b1-4)GlcNAc(b1-3)Gal(b1-4)GlcNAc(b1-2)Man(a1-3)[Gal(b1-4)GlcNAc(b1-3)Gal(b1-4)GlcNAc(b1-3)Gal(b1-4)GlcNAc(b1-2)Man(a1-6)]Man(b1-4)GlcNAc(b1-4)GlcNAc
Method in brief: as §1

[9] = target: Gal(b1-4)GlcNAc(b1-3)Gal(b1-4)GlcNAc(b1-3)Gal(b1-4)GlcNAc(b1-2)Man(a1-3)[Gal(b1-4)GlcNAc(b1-3)Gal(b1-4)GlcNAc(b1-3)Gal(b1-4)GlcNAc(b1-2)Man(a1-6)]Man(b1-4)GlcNAc(b1-4)[Fuc(a1-6)]GlcNAc
Method in brief: as §1

[10] = target: Gal(b1-4)GlcNAc(b1-3)Gal(b1-4)GlcNAc(b1-3)Gal(b1-4)GlcNAc(b1-2)[Gal(b1-4)GlcNAc(b1-3)Gal(b1-4)GlcNAc(b1-3)Gal(b1-4)GlcNAc(b1-6)]Man(a1-6)[Gal(b1-4)GlcNAc(b1-3)Gal(b1-4)GlcNAc(b1-3)Gal(b1-4)GlcNAc(b1-2)Man(a1-3)]Man(b1-4)GlcNAc(b1-4)[Fuc(a1-6)]GlcNAc
Method in brief: as §1

[11] = target: Gal(b1-4)GlcNAc(b1-3)Gal(b1-4)GlcNAc(b1-3)Gal(b1-4)GlcNAc(b1-3)Gal(b1-4)GlcNAc(b1-2)Man(a1-3)[Gal(b1-4)GlcNAc(b1-3)Gal(b1-4)GlcNAc(b1-3)Gal(b1-4)GlcNAc(b1-3)Gal(b1-4)GlcNAc(b1-2)Man(a1-6)]Man(b1-4)GlcNAc(b1-4)GlcNAc
Method in brief: as §1

[12] = target: Gal(b1-4)GlcNAc(b1-3)Gal(b1-4)GlcNAc(b1-3)Gal(b1-4)GlcNAc(b1-3)Gal(b1-4)GlcNAc(b1-2)Man(a1-3)[Gal(b1-4)GlcNAc(b1-3)Gal(b1-4)GlcNAc(b1-3)Gal(b1-4)GlcNAc(b1-3)Gal(b1-4)GlcNAc(b1-2)Man(a1-6)]Man(b1-4)GlcNAc(b1-4)[Fuc(a1-6)]GlcNAc
Method in brief: as §1

[13] = target: Gal(b1-4)GlcNAc(b1-3)Gal(b1-4)GlcNAc(b1-3)Gal(b1-4)GlcNAc(b1-3)Gal(b1-4)GlcNAc(b1-2)[Gal(b1-4)GlcNAc(b1-3)Gal(b1-4)GlcNAc(b1-3)Gal(b1-4)GlcNAc(b1-3)Gal(b1-4)GlcNAc(b1-6)]Man(a1-6)[Gal(b1-4)GlcNAc(b1-3)Gal(b1-4)GlcNAc(b1-3)Gal(b1-4)GlcNAc(b1-3)Gal(b1-4)GlcNAc(b1-2)Man(a1-3)]Man(b1-4)GlcNAc(b1-4)[Fuc(a1-6)]GlcNAc
Method in brief: as §1

[14] = target: Gal(b1-4)GlcNAc(b1-3)Gal(b1-4)GlcNAc(b1-3)Gal(b1-4)GlcNAc(b1-3)Gal(b1-4)GlcNAc(b1-3)Gal(b1-4)GlcNAc(b1-2)Man(a1-3)[Gal(b1-4)GlcNAc(b1-3)Gal(b1-4)GlcNAc(b1-3)Gal(b1-4)GlcNAc(b1-3)Gal(b1-4)GlcNAc(b1-3)Gal(b1-4)GlcNAc(b1-2)Man(a1-6)]Man(b1-4)GlcNAc(b1-4)GlcNAc
Method in brief: as §1

[15] = target: Gal(b1-4)GlcNAc(b1-3)Gal(b1-4)GlcNAc(b1-3)Gal(b1-4)GlcNAc(b1-3)Gal(b1-4)GlcNAc(b1-3)Gal(b1-4)GlcNAc(b1-2)Man(a1-3)[Gal(b1-4)GlcNAc(b1-3)Gal(b1-4)GlcNAc(b1-3)Gal(b1-4)GlcNAc(b1-3)Gal(b1-4)GlcNAc(b1-3)Gal(b1-4)GlcNAc(b1-2)Man(a1-6)]Man(b1-4)GlcNAc(b1-4)[Fuc(a1-6)]GlcNAc
Method in brief: as §1

[16] = target: Gal(b1-4)GlcNAc(b1-3)Gal(b1-4)GlcNAc(b1-3)Gal(b1-4)GlcNAc(b1-3)Gal(b1-4)GlcNAc(b1-3)Gal(b1-4)GlcNAc(b1-2)[Gal(b1-4)GlcNAc(b1-3)Gal(b1-4)GlcNAc(b1-3)Gal(b1-4)GlcNAc(b1-3)Gal(b1-4)GlcNAc(b1-3)Gal(b1-4)GlcNAc(b1-6)]Man(a1-6)[Gal(b1-4)GlcNAc(b1-3)Gal(b1-4)GlcNAc(b1-3)Gal(b1-4)GlcNAc(b1-3)Gal(b1-4)GlcNAc(b1-3)Gal(b1-4)GlcNAc(b1-2)Man(a1-3)]Man(b1-4)GlcNAc(b1-4)[Fuc(a1-6)]GlcNAc
Method in brief: as §1

[17] = target: Gal(b1-4)GlcNAc(b1-3)Gal(b1-4)GlcNAc(b1-3)Gal(b1-4)GlcNAc(b1-3)Gal(b1-4)GlcNAc(b1-3)Gal(b1-4)GlcNAc(b1-3)Gal(b1-4)GlcNAc(b1-2)Man(a1-3)[Gal(b1-4)GlcNAc(b1-3)Gal(b1-4)GlcNAc(b1-3)Gal(b1-4)GlcNAc(b1-3)Gal(b1-4)GlcNAc(b1-3)Gal(b1-4)GlcNAc(b1-3)Gal(b1-4)GlcNAc(b1-2)Man(a1-6)]Man(b1-4)GlcNAc(b1-4)GlcNAc
Method in brief: as §1

[18] = target: Gal(b1-4)GlcNAc(b1-3)Gal(b1-4)GlcNAc(b1-3)GalNAc
Method in brief: as §1

[19] = target: Gal(b1-4)GlcNAc(b1-3)Gal(b1-4)GlcNAc(b1-3)[Gal(b1-4)GlcNAc(b1-3)Gal(b1-4)GlcNAc(b1-6)]GalNAc
Method in brief: as §1

B1: FimA (Actinomyces oris) (protein)
chain: MHHHHHHSSGVDLGTENLYFQSNAETPNYGNIKTDATGSLVIHKHLTGGGKDIGTPTGTAQNADDKGPAVEGVVFTAYPITDINLKDPAGWDTISNLSRTGVPDSACANPAAPTLGAHQFGTPKVSPATTKEGLATITEMPVQAYLVCETTTPGDIVQKAKPFVVTIPHPNTAAGADGQWIYDVNVYPKNEAIDVDKTIQAQKLNGYGVGSLIKFPVESTAPTLDAKSFYKYFQLKDTLDERLSEVTATDVSLEGTPLQPTDYKVETKQQTVTVTFTAEGLKKIKAAPGKKVSAVFQGKVTKAGNGAITNRAQVISDTLYAEQPPTPETPPTDPENPPTSDEVISRWGDLSIKKVDTHQQGQTKAGLQGAQFQLYKAKNAYANTCSNEKEGAPIAINGQTTLTTDAQGAIDIKGLFISDSIDGADRDNQVNAMERCYVLVETKAPAGYVLPAGNGAATPVKVKAGEETTDNVTVENTKQSVPGLPLTG
B1 was tested. Which “glycan array binding signal (z-score)” value [1] did it give?
The value was -0.167.

What about the “glycan array binding signal (z-score)” value [2] of the same binder?
Its value is 0.161.

What about the “glycan array binding signal (z-score)” value [3] of the same binder?
Its value is 0.035.

What about the “glycan array binding signal (z-score)” value [4] of the same binder?
Its value is 0.503.

What about the “glycan array binding signal (z-score)” value [5] of the same binder?
The value was 1.04.

And the “glycan array binding signal (z-score)” value [6]?
The value was 0.194.

And the “glycan array binding signal (z-score)” value [7]?
The value was -0.337.

And the “glycan array binding signal (z-score)” value [8]?
Its value is 0.495.

And the “glycan array binding signal (z-score)” value [9]?
The value was 0.266.

And the “glycan array binding signal (z-score)” value [10]?
The value was -0.366.

What about the “glycan array binding signal (z-score)” value [11] of the same binder?
Its value is 0.065.

And the “glycan array binding signal (z-score)” value [12]?
Its value is -0.304.

What about the “glycan array binding signal (z-score)” value [13] of the same binder?
The value was 0.025.

What about the “glycan array binding signal (z-score)” value [14] of the same binder?
Its value is 3.42.

And the “glycan array binding signal (z-score)” value [15]?
Its value is -0.231.

What about the “glycan array binding signal (z-score)” value [16] of the same binder?
Its value is 5.1.

What about the “glycan array binding signal (z-score)” value [17] of the same binder?
The value was 0.513.

What about the “glycan array binding signal (z-score)” value [18] of the same binder?
Its value is 0.628.

And the “glycan array binding signal (z-score)” value [19]?
The value was -0.016.
